Experimental data from PMC8593154.
No constants are given. Whether binding was seen depends on the method and setting. Binding calls can cover weak binding; strength is not graded here. For part of these data: Binding seen in cells or lysates may run through a third protein.

Columns and labels:
[1] = target: γB2ΔICD-EC5-VenusΔN3C9-P3 (mouse) (UniProt Q91XX7); test: FRET or BRET; Venus/mTQ2 ratio imaging (405 nm excitation of mTQ2, IMD) at cell adhesion sites of aggregates of K562 cells individually expressing donor and acceptor constructs
[2] = target: γB2ΔICD-EC5-VenusΔN3C9-P3 (mouse) (UniProt Q91XX7); test: cell aggregation assay; K562 cells individually expressing the constructs, co-cultured, rotated at 30 rpm overnight at 37 °C; aggregates observed by confocal microscopy
[3] = target: γB2ΔICD-EC5-VenusΔN3C9-P3 (mouse) (UniProt Q91XX7); test: FRET or BRET; Venus/mTQ2 ratio imaging at mTQ2- and Venus-positive cell adhesion sites of co-cultured K562 cells co-expressing N-cadherin with one FRET indicator

Measured: binding

γB2ΔICD-EC1-G4S-mTQ2ΔC6 (from UniProt Q91XX7) (receptor)
binds: all assays above
